Data as given in PubChem BioAssay AID504808 (Drosophila RNAi Screening Center, 2011).

Aim: 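Fly genes required to hold E2F transcription in check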 (primary screen)
System: Drosophila S2 cells
Reagents: long dsRNA against Drosophila genes
Read-out: 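Firefly luciferase driven by E2F sites, normalised to Renilla luciferase on the same minimal promoter, measured by plate reader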
Direction: E2F firefly: higher = more E2F reporter activity; Renilla normaliser: higher = more normaliser reporter signal
Hit rule: 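Called active if the normalised E2F reporter went up by over 50%; the cutoff is arbitrary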
In all, the deposit lists about 21,000 reagents; below is an unselected part of those that have a named target and a result. Over the whole deposit, 18 (0.084%) were called active. 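Raw counts without plate normalisation, one of two replicates; the ratio scores behind the calls were not deposited.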 A plus sign joins genes that one reagent is predicted to hit. The record does not give: the amount of reagent, the time to read-out.

no.	Gene	dsRNA	E2F firefly, rep 1	Renilla normaliser, rep 1	Call
1	NTPase	DRSC00761	92609	3867	inactive
2	Ttc19 (Tetratricopeptide repeat domain 19)	DRSC02474	1.06e5	4453	inactive
3	Pcyt2 (Phosphocholine cytidylyltransferase 2)	DRSC08531	77572	3608	inactive
4	Klp59D (Kinesin-like protein at 59D)	DRSC04118	1.11e5	4582	inactive
5	CG13609	DRSC14612	1.16e5	5531	inactive
6	CG14352	DRSC00382	1.58e5	6577	inactive
7	Hsc70-5 (Heat shock protein 70 cognate 5)	DRSC07442	2496	217	inactive
8	CR14033 (pseudo)	DRSC02358	90132	3824	inactive
9	Jon44E (Jonah 44E)	DRSC07216	1.37e5	4653	inactive
10	CG3999	DRSC15534	1.47e5	6176	inactive
11	BaraB (Baramicin B)	DRSC06420	1.56e5	4934	inactive
12	CG15708	DRSC06579	1.35e5	5147	inactive
13	brk (brinker)	DRSC18745	1.07e5	5745	inactive
14	kappaB-Ras + CG30503	DRSC06619	1.45e5	4925	inactive
15	kappaB-Ras + CG30503	DRSC07636	1.43e5	4168	inactive
16	shd (shade)	DRSC11129	1.64e5	8521	inactive
17	TM9SF2 (Transmembrane 9 superfamily protein member 2)	DRSC03197	90394	4128	inactive
18	Fancd2	DRSC15208	1.18e5	7725	inactive
19	Wnt5 (Wnt oncogene analog 5)	DRSC20300	1.43e5	5731	inactive
20	CG4907	DRSC15673	1.08e5	5365	inactive
21	ovo	DRSC18050	8882	748	inactive
22	ovo	DRSC18812	1.05e5	5480	inactive
23	CG40282 (retired record)	DRSC07814	1.04e5	4382	inactive
24	CG5555	DRSC15834	81971	6232	inactive
25	Pkd2 (Polycystic kidney disease 2)	DRSC02962	97662	3445	inactive
26	CG3505	DRSC15489	59223	3152	inactive
27	RabX1	DRSC04678	99612	4817	inactive
28	smash (smallish)	DRSC12139	86988	3382	inactive
29	smash (smallish)	DRSC12239	1.21e5	7193	inactive
30	CG33017	DRSC06573	1.46e5	4919	inactive
31	CG33017	DRSC06574	1.47e5	5850	inactive
32	ODA-Dnal1 (Outer dynein arm dynein axonemal light chain 1)	DRSC07270	1.41e5	4944	inactive
33	Tsp29Fa (Tetraspanin 29Fa)	DRSC03232	1.48e5	5279	inactive
34	TfIIFbeta (Transcription factor TFIIFbeta)	DRSC16884	1.43e5	7419	inactive
35	mRpS26 (mitochondrial ribosomal protein S26)	DRSC10823	1.60e5	6159	inactive
36	CG9676	DRSC20204	1.62e5	6845	inactive
37	CG10914	DRSC06010	1.62e5	5569	inactive
38	CG30470 (retired record)	DRSC05553	97132	4386	inactive
39	CG30470 (retired record)	DRSC06260	1.01e5	4731	inactive
40	CG30470 (retired record)	DRSC06261	1.11e5	4500	inactive
41	CG30470 (retired record)	DRSC06777	1.05e5	4688	inactive
42	Eig71Eg (Ecdysone-induced gene 71Eg)	DRSC11154	1.65e5	8084	inactive
43	Rlb1	DRSC16826	1.65e5	6401	inactive
44	CG7149	DRSC03016	95109	4351	inactive
45	crn (crooked neck)	DRSC18184	72877	6439	inactive
46	crn (crooked neck)	DRSC18185	75012	5886	inactive
47	crn (crooked neck)	DRSC18755	1061	888	inactive
48	CG17999	DRSC04300	81030	3887	inactive
49	CG1213	DRSC12191	1.34e5	6252	inactive
50	CG11379	DRSC18629	52090	3120	inactive
51	CG11808	DRSC06088	77075	3256	inactive
52	Ir56d (Ionotropic receptor 56d)	DRSC06590	1.27e5	4445	inactive
53	nord	DRSC04210	1.14e5	4839	inactive
54	nord	DRSC04361	1.17e5	4636	inactive
55	CG10307	DRSC04057	87104	3723	inactive
56	ich (ichor)	DRSC12715	67837	4723	inactive
57	ich (ichor)	DRSC14448	1.26e5	5850	inactive
58	jef (jet fuel)	DRSC06198	1.01e5	4668	inactive
59	Ptp10D (Protein tyrosine phosphatase 10D)	DRSC20272	1.35e5	6326	inactive
60	CG12084	DRSC08247	80170	3204	inactive
61	fng (fringe)	DRSC11455	83425	3600	inactive
62	fng (fringe)	DRSC11887	78844	3330	inactive
63	CG3939	DRSC18498	1.30e5	7144	inactive
64	CG17683	DRSC21160	1.34e5	6785	inactive
65	CG31178	DRSC14590	1.54e5	7064	inactive
66	CG14837	DRSC10207	1.04e5	3721	inactive
67	CG11857	DRSC14411	1.02e5	6395	inactive
68	CG14505	DRSC06476	1.24e5	4753	inactive
69	CG5697	DRSC15858	1.11e5	6303	inactive
70	CG32643	DRSC18962	95164	2800	inactive
71	CG12078	DRSC08242	1.06e5	4631	inactive
72	Cdk7 (Cyclin-dependent kinase 7)	DRSC18451	30219	3044	inactive
73	CG14246	DRSC14741	1.12e5	5778	inactive
74	CG17097	DRSC02569	1.47e5	4487	inactive
75	neo (neyo)	DRSC16316	1787	852	inactive
76	CG11007	DRSC06023	66094	2797	inactive
77	CG34281	DRSC14807	1.12e5	6057	inactive
78	Set8 (SET domain containing 8)	DRSC15473	77786	3368	inactive
79	CG1827	DRSC06719	3078	49	inactive
80	CG3649	DRSC04400	93835	3842	inactive
81	CG10265	DRSC05986	3264	193	inactive
82	Ret (Ret oncogene)	DRSC03409	87122	3885	inactive
83	Ret (Ret oncogene)	DRSC03410	97698	4139	inactive
84	raw	DRSC03599	1.02e5	4519	inactive
85	raw	DRSC03600	1.63e5	5960	inactive
86	CG30058 + CG34235 + CG34312	DRSC05401	1.44e5	4835	inactive
87	Ir52b (Ionotropic receptor 52b)	DRSC06263	89222	3662	inactive
88	Tdg (Thymine DNA glycosylase)	DRSC17119	88717	2432	inactive
89	Tdg (Thymine DNA glycosylase)	DRSC17169	1.19e5	5257	inactive
90	Mgat3	DRSC01305	1.31e5	6573	inactive
91	CG34234 + Dh44-R2	DRSC07278	152	41	inactive
92	CG5116	DRSC15720	52212	3455	inactive
93	Ctr1C (Copper transporter 1C)	DRSC15089	1.40e5	7998	inactive
94	CG17883	DRSC07838	91539	4252	inactive
95	CG4362	DRSC15567	1.53e5	8326	inactive
96	Elba3 (Early boundary activity 3)	DRSC00469	93994	4115	inactive
97	CG11563	DRSC14327	1.14e5	5567	inactive
98	ex (expanded)	DRSC00817	95282	4026	inactive
99	AANATL7 (Arylalkylamine N-acetyltransferase-like 7)	DRSC18616	1.08e5	6737	inactive
100	Rbf (Retinoblastoma-family protein)	DRSC18704	4290	1016	active
101	CG7139	DRSC11611	68895	4311	inactive
102	CG10948	DRSC09806	1.23e5	6501	inactive
103	CG14932	DRSC02414	1.47e5	4560	inactive
104	Phb2 (Prohibitin 2)	DRSC06512	50226	3082	inactive
105	hth (homothorax)	DRSC16967	1.56e5	6729	inactive
106	CG1582	DRSC19732	7895	720	inactive
107	CG13454	DRSC10001	59523	3285	inactive
